Source: patent publication US20160367664A1
Changes are numbered by the printed parent chain. No constants are given. Whether binding was seen depends on the method and setting. Some entries that bind do so weakly or less than the wild type.

Chains of the proteins cited; added tags and fusions are not shown. Residues count along the entry.
UniProt P14784: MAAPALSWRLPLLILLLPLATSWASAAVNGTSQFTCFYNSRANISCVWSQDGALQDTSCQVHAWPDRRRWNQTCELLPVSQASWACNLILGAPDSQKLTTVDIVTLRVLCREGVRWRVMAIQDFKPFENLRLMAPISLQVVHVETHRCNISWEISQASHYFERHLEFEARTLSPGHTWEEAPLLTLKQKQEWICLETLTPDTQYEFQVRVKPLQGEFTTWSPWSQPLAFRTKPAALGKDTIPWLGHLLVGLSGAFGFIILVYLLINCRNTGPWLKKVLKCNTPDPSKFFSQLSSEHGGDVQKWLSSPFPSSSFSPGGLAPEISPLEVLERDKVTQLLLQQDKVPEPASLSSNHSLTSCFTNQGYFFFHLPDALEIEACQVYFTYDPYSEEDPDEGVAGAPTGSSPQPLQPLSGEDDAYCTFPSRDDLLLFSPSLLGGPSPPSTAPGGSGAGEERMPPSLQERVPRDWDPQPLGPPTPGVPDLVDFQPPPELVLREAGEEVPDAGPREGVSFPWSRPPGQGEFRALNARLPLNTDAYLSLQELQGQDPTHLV
UniProt P31785, residues 23-262: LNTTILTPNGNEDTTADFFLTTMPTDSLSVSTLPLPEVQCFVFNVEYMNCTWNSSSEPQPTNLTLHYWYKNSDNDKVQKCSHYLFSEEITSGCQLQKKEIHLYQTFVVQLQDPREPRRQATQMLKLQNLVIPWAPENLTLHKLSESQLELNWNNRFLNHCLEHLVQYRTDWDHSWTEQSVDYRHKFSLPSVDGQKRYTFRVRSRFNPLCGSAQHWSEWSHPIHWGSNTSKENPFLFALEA

Key:
[1] = target: recombinant human interleukin 2 receptor β (IL-2Rβ; CD122) (human) (UniProt P14784); test: ELISA on IL-2Rβ after heating the clone for 4 hours at the given temperature
[2] = target: recombinant human interleukin 2 receptor β (IL-2Rβ; CD122) (human) (UniProt P14784); test: ELISA before and after heating
[3] = target: recombinant human interleukin 2 receptor β (IL-2Rβ; CD122) (human) (UniProt P14784); test: ELISA on IL-2Rβ, scFv titrated
[4] = target: recombinant human interleukin 2 receptor β (IL-2Rβ; CD122) (human) (UniProt P14784); test: ELISA
[5] = target: recombinant human common γ chain (γc; CD132) (human) (UniProt P31785); test: ELISA on γc (IL-2Rγc), scFv titrated
[6] = target: recombinant human common γ chain (γc; CD132) (human) (UniProt P31785); test: ELISA

B1: P2C4 (antibody, V domains shown)
VH: EVQLVQSGAEVKKPGSSVKVSCKASGYTFTNYYMHWVRQAPGQGLEWMGAIMPSRGGTSYPQKFQGRVTMTGDTSTSTVYMELSSLRSEDTAVYYCARGEYYYDSSGYYYWGQGTLVTVSS
VL: QSALTQPASVSGSPGQSIAISCTGTSSDIGHYDFVSWYQQHPGTAPKLIIYDINNRPSGISNRFSGSKSDNMASLTISGLQPEDEADYYCSAYTSSDTLVFGGGTKLT
binding [1]: binds
binding [2]: binds

B2: P2C4_E3 (antibody)
scFv: EVQLVQSGAEVKKPGSSVKVSCKASGYTFTNYYIHWVRQAPGQGLEWMGAIMPSRGGTSYPQKFQGRVTMTGDTSTSTVYMELNSLRSEDTAVYYCARGEYYYDSSGYYYWGQGTLVTVSSGGGGSGGGGSGGGGSQSALTQPASVSGSPGQSIAISCTGTSSDIGHYDFVSWYQQHPGTAPKLIIYDINNRPSGISNRFSGSKSDNMASLTISGLQPEDEADYYCSAYTSSDTVVFGGGTKLTVLAAAHHHHHH
binding [1]: binds
binding [2]: binds

B3: P2C4_E8 (antibody)
scFv: B2 scFv with I34M, N84S, Q113P
binding [1]: binds
binding [2]: binds

B4: P2C4_G2 (antibody)
scFv: B2 scFv with I34M, N84S, S88T, G134V
binding [1]: binds
binding [2]: binds

B5: P2C4_G11 (antibody)
scFv: B2 scFv with I34M, N84S, S85N
binding [1]: binds
binding [2]: binds

B6: P2C4_H1 (antibody)
scFv: B2 scFv with I34M, N84S, T118N
binding [1]: binds
binding [2]: binds

B7: P2C4_H2 (antibody)
scFv: B2 scFv with T30S, I34M, M48I, N84S
binding [1]: binds
binding [2]: binds

B8: P2C4_C1D10 (antibody)
scFv: EVQLVQSGAEVKKPGSSVKVSCKASGYTFTNYYMHWVRQAPGQGLEWMGAIMPSRGGTSYPQKFQGRVTMTGDTSTSTVYMELSSLRSEDTAVYYCARGEYYYDSSGYYYWGQGTPVTVSSGGGGSGGGGSGGGGSQSALTQPASVSGSPGQSIAISCTGTSSDIGDYDFVSWYQQHPGTAPKLIIYDINNRPSGISNRFSGSKSDNMASLTISGLQPEDEADYYCSAYTSSDTVVFGGGTKLTVL
binding [1]: binds
binding [2]: binds

B9: P2C4_FW2 single chain antibody (scFv)
scFv: EVQLVQSGAEVKKPGASVKVSCKASGYTFTNYYMHWVRQAPGQGLEWMGAIMPSRGGTSYPQKFQGRVTITADKSTSTAYMELSSLRSEDTAVYYCARGEYYYDSSGYYYWGQGTLVTVSSGGGGSGGGGSGGGGSQSVLTQPPSVSGAPGQRVTISCTGTSSDIGHYDFVSWYQQLPGTAPKLLIYDINNRPSGVPDRFSGSKSGTSASLAITGLQAEDEADYYCSAYTSSDTLVFGGGTKLTVL
binding [3]: binds
binding [4]: binds

B10: P1A3_FW2 single chain antibody (scFv)
scFv: EVQLVESGGGLVQPGGSLRLSCAASGGSFSGYYWSWVRQAPGKGLEWVSEINHSGSTNYNPSLKSRFTISRDNSKNTLYLQMNSLRAEDTAVYYCARSPGGYSGGYFQHWGQGTLVTVSSGGGGSGGGGSGGGGSDIQMTQSPSSLSASVGDRVTITCRSSQSLLHSNGYNYLDWYQQKPGKAPKLLIYLGSNRDSGVPSRFSGSGSGTDFTLTISSLQPEDFATYYCMQGTHWPWTFGQGTKVEIK
binding [5]: binds
binding [6]: binds
